# Assay results published in the supplement of paper PMC6411743.
# ± gives the standard deviation of the averaged measurements. Only a part is listed here, and it is no random draw.
# How the values were obtained:
# Assay in all cases: NP40-soluble protein abundance relative to vehicle (solubility fold change) (ratio); higher = more soluble protein in presence of AMP-PNP
# [1] = target: T1, PPM1A (UniProt P35813)
# T1 sequence (whole entry): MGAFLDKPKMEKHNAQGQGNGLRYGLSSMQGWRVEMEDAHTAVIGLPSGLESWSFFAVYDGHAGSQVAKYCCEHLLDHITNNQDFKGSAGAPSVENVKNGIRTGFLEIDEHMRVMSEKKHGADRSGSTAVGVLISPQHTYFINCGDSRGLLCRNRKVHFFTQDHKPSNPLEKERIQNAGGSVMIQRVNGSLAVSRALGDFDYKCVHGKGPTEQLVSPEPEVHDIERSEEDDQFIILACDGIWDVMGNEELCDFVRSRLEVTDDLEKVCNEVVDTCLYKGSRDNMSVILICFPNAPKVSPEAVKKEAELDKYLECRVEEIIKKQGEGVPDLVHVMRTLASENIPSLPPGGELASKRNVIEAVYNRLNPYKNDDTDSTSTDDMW
# Outline: (§1)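 Jurkat crude lysate prepared with a Dounce homogeniser was treated at eight concentrations spanning 0.1 to 10 mM, 10 min at room temperature then 3 min at 37 °C. Solubilisation with 0.8% NP40 and benzonase and ultracentrifugation preceded TMT labelling of the supernatant for LC-MS/MS. Fold change against the detergent-processed vehicle was determined per replicate from vsn-normalised intensities, across three independent experiments.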
# [2] = target: T2, UBA1 (UniProt P22314)
# T2 sequence (whole entry): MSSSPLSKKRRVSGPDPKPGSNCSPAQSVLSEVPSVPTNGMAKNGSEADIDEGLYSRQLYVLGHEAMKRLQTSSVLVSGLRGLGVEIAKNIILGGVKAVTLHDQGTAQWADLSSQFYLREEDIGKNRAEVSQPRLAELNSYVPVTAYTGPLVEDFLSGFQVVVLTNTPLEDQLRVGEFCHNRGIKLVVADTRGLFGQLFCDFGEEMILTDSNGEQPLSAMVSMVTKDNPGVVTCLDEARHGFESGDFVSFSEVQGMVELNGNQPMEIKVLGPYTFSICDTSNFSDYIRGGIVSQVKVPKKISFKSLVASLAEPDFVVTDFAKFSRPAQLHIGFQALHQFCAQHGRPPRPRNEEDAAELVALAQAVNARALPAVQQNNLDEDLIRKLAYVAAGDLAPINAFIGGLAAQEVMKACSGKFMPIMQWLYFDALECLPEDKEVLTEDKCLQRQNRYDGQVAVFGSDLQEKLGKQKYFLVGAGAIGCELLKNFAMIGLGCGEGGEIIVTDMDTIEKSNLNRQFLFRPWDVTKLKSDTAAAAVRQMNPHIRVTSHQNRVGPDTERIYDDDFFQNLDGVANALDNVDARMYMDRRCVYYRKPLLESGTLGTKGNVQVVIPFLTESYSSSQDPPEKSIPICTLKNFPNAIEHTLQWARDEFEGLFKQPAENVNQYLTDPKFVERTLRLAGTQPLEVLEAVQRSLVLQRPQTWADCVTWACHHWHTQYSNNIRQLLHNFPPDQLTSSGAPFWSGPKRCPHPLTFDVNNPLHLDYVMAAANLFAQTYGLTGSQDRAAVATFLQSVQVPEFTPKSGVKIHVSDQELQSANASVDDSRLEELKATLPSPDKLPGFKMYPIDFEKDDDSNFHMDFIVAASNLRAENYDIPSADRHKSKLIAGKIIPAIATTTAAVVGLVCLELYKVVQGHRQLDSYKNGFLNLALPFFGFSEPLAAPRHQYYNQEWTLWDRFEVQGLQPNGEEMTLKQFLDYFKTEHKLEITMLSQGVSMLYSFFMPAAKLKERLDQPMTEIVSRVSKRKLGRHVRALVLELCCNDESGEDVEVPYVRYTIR
# Outline: as §1
# [3] = target: T3, UniProt P18846 and related entries
# T3 sequence (whole entry): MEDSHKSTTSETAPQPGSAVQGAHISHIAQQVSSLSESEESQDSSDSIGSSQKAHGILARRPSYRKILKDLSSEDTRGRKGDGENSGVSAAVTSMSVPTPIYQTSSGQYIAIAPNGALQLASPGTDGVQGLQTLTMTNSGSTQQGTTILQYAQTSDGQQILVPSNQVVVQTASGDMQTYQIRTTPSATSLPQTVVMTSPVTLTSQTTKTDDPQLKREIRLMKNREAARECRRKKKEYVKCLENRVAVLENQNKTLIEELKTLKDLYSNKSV
# Outline: as §1
# [4] = target: T4, UniProt P31350 and related entries
# T4 sequence (whole entry): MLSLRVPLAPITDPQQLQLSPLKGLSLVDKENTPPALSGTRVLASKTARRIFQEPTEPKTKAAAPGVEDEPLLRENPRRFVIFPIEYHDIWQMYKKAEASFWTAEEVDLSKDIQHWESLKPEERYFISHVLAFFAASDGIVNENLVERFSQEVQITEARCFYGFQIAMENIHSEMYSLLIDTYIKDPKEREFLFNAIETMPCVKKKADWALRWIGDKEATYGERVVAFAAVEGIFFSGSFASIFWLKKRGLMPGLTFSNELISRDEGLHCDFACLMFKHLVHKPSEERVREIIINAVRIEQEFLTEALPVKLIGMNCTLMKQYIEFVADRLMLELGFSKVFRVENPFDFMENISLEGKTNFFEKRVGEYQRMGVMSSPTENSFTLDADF
# Outline: as §1
# [5] = target: T5, UniProt P32856 and related entries
# T5 sequence (whole entry): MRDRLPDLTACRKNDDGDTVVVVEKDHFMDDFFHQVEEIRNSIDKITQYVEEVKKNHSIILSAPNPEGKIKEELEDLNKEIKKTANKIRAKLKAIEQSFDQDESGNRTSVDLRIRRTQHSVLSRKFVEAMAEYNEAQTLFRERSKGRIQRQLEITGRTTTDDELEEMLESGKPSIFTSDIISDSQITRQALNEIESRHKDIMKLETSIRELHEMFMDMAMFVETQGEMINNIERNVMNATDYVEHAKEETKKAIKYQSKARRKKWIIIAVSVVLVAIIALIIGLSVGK
# Outline: as §1
# [6] = target: T6, UniProt P35613 and related entries
# T6 sequence (whole entry): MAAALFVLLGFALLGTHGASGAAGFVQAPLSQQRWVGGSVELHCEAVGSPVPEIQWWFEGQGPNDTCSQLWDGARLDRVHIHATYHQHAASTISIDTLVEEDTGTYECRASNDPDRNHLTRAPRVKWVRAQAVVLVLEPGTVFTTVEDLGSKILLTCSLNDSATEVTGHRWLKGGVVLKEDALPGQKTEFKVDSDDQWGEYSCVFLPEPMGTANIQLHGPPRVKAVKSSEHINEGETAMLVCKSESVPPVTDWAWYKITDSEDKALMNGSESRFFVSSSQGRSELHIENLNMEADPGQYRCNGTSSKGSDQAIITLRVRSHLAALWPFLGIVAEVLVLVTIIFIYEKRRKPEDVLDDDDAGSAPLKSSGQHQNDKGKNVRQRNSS
# Outline: as §1
# [7] = target: T7, UniProt P35626
# T7 sequence (whole entry): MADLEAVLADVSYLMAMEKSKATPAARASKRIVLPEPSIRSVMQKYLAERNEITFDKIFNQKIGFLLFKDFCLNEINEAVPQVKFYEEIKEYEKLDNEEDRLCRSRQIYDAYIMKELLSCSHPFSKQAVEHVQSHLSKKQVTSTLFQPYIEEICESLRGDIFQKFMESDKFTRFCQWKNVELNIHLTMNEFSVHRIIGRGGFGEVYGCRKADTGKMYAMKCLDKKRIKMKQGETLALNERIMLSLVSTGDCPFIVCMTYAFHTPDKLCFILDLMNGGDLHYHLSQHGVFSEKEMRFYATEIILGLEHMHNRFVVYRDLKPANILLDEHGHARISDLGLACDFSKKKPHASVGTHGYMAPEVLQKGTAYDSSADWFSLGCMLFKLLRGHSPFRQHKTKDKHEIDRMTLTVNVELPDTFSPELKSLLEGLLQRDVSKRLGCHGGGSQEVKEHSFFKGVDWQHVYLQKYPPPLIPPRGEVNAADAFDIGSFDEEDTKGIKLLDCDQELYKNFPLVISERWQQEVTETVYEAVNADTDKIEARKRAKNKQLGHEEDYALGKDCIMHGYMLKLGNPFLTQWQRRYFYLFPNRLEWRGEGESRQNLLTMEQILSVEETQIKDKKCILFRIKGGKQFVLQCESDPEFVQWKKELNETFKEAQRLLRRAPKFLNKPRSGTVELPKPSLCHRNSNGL
# Outline: as §1
# [8] = target: T8, YWHAB (UniProt P31946)
# T8 sequence (whole entry): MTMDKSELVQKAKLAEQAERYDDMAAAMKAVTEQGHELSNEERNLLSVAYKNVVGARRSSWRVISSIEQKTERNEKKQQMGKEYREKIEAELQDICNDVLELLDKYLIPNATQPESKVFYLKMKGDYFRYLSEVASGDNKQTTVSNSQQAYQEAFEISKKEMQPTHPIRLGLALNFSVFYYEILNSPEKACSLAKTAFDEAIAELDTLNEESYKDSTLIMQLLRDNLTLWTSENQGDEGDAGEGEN
# Outline: as §1
structure (smiles),measurement,setting,value
Nc1ncnc2c1ncn2[C@@H]1O[C@H](COP(=O)(O)OP(=O)(O)NP(=O)(O)O)[C@@H](O)[C@H]1O [adenylyl imidodiphosphate],NP40-soluble protein abundance,[1]; concentration: 6mM,1.02 ± 0.041
same,NP40-soluble protein abundance,[1]; concentration: 8mM,0.976 ± 0.022
same,NP40-soluble protein abundance,[1]; concentration: 10mM,1 ± 0.054
same,NP40-soluble protein abundance,[2]; concentration: 1mM,0.9895 ± 0.0049
same,NP40-soluble protein abundance,[2]; concentration: 2mM,0.955 ± 0.023
same,NP40-soluble protein abundance,[2]; concentration: 4mM,0.9783 ± 0.0037
same,NP40-soluble protein abundance,[2]; concentration: 6mM,0.978 ± 0.021
same,NP40-soluble protein abundance,[2]; concentration: 8mM,0.951 ± 0.072
same,NP40-soluble protein abundance,[2]; concentration: 10mM,0.956 ± 0.033
same,NP40-soluble protein abundance,[3]; concentration: 1mM,0.941 ± 0.018
same,NP40-soluble protein abundance,[3]; concentration: 2mM,1.04 ± 0.06
same,NP40-soluble protein abundance,[3]; concentration: 4mM,0.9115 ± 0.0038
same,NP40-soluble protein abundance,[3]; concentration: 6mM,0.989 ± 0.03
same,NP40-soluble protein abundance,[3]; concentration: 8mM,0.934 ± 0.023
same,NP40-soluble protein abundance,[3]; concentration: 10mM,0.995 ± 0.022
same,NP40-soluble protein abundance,[4]; concentration: 1mM,0.986 ± 0.035
same,NP40-soluble protein abundance,[4]; concentration: 2mM,0.976 ± 0.03
same,NP40-soluble protein abundance,[4]; concentration: 4mM,0.985 ± 0.021
same,NP40-soluble protein abundance,[4]; concentration: 6mM,0.94 ± 0.012
same,NP40-soluble protein abundance,[4]; concentration: 8mM,0.944 ± 0.019
same,NP40-soluble protein abundance,[4]; concentration: 10mM,0.91 ± 0.027
same,NP40-soluble protein abundance,[5]; concentration: 1mM,1.03 ± 0.019
same,NP40-soluble protein abundance,[5]; concentration: 2mM,1.07 ± 0.019
same,NP40-soluble protein abundance,[5]; concentration: 4mM,1 ± 0.031
same,NP40-soluble protein abundance,[5]; concentration: 6mM,1.01 ± 0.013
same,NP40-soluble protein abundance,[5]; concentration: 8mM,1.01 ± 0.029
same,NP40-soluble protein abundance,[5]; concentration: 10mM,0.992 ± 0.016
same,NP40-soluble protein abundance,[6]; concentration: 1mM,1.02 ± 0.02
same,NP40-soluble protein abundance,[6]; concentration: 2mM,1.08 ± 0.093
same,NP40-soluble protein abundance,[6]; concentration: 4mM,0.989 ± 0.051
same,NP40-soluble protein abundance,[6]; concentration: 6mM,1.03 ± 0.021
same,NP40-soluble protein abundance,[6]; concentration: 8mM,0.997 ± 0.03
same,NP40-soluble protein abundance,[6]; concentration: 10mM,0.987 ± 0.036
same,NP40-soluble protein abundance,[7]; concentration: 1mM,1.03 ± 0.033
same,NP40-soluble protein abundance,[7]; concentration: 2mM,0.993 ± 0.023
same,NP40-soluble protein abundance,[7]; concentration: 4mM,1.04 ± 0.04
same,NP40-soluble protein abundance,[7]; concentration: 6mM,1.05 ± 0.018
same,NP40-soluble protein abundance,[7]; concentration: 8mM,1.07 ± 0.011
same,NP40-soluble protein abundance,[7]; concentration: 10mM,1.02 ± 0.0086
same,NP40-soluble protein abundance,[8]; concentration: 1mM,0.982 ± 0.024
same,NP40-soluble protein abundance,[8]; concentration: 2mM,1.09 ± 0.08
same,NP40-soluble protein abundance,[8]; concentration: 4mM,0.971 ± 0.056
same,NP40-soluble protein abundance,[8]; concentration: 6mM,0.967 ± 0.044
same,NP40-soluble protein abundance,[8]; concentration: 8mM,0.964 ± 0.012
same,NP40-soluble protein abundance,[8]; concentration: 10mM,0.958 ± 0.075

# Some of the entries above, set out differently.
structure (smiles) | measurement | setting | value
Nc1ncnc2c1ncn2[C@@H]1O[C@H](COP(=O)(O)OP(=O)(O)NP(=O)(O)O)[C@@H](O)[C@H]1O [adenylyl imidodiphosphate] | NP40-soluble protein abundance | [7]; concentration: 6mM | 1.05 ± 0.018
same | NP40-soluble protein abundance | [7]; concentration: 8mM | 1.07 ± 0.011
same | NP40-soluble protein abundance | [7]; concentration: 10mM | 1.02 ± 0.0086
